Reference: paper doi:10.1101/310003
These are yes or no findings as the source states them, for the method shown. For some assays here: In cells and extracts the contact can be indirect. Some binding calls cover weakened binding; strength is not graded here. For some assays here: Sequences can lack the tags named with a protein.

T1: SS4 fused to a moiety of YFP (BiFC construct) (Arabidopsis thaliana) (UniProt Q0WVX5)
T1 sequence: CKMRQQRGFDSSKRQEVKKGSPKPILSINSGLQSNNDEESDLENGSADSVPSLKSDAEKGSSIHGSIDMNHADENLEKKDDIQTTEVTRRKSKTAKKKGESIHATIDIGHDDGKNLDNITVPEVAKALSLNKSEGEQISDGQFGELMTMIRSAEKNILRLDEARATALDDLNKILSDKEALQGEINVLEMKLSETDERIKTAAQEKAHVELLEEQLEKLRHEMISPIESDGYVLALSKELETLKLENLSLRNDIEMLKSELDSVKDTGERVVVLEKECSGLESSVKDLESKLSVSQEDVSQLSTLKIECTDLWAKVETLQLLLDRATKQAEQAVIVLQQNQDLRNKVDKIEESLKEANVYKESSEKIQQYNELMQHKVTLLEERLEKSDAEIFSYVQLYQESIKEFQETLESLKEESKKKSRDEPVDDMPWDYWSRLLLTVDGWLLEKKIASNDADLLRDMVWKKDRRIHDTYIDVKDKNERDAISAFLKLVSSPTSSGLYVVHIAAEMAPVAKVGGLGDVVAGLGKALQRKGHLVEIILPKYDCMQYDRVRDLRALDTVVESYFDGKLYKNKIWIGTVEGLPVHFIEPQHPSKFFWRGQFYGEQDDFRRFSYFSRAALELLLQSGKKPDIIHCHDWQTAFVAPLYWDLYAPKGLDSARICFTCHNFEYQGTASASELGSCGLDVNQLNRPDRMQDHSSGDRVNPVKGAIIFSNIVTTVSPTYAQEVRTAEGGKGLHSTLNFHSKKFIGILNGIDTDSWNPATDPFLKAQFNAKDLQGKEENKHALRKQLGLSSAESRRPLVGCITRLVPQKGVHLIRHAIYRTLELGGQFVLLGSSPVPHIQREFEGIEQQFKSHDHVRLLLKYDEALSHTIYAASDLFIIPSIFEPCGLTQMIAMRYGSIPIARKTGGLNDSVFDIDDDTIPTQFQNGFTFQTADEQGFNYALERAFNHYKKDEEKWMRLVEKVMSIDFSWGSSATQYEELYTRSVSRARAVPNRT


Columns and labels:
[1] = molecular target: T1, SS4 fused to a moiety of YFP (BiFC construct) (Arabidopsis thaliana); assay: split reporter
[2] = molecular target: soluble starch synthase 4 (SS4), amino acids 43 to 1040, yeast two-hybrid bait (Arabidopsis thaliana) (UniProt Q0WVX5); assay: two-hybrid

Row | binding [1] | binding [2] | Binder
1 | binds |  | PII1 fused to a moiety of YFP (BiFC construct) (protein, UniProt Q8H1E5 28-783) VNHKQKSLVAFPSITRRKRHLLLSVQSVLHNTRPNINDNGSAESANVLFDKLFARTHRLERQTNQHSVYPDDDDLPYSNLGVLESDLEAALVALLKREEDLHDAERKLLSDKNKLNRAKEELEKREKTISEASLKHESLQEELKRANVELASQAREIEELKHKLRERDEERAALQSSLTLKEEELEKMRQEIANRSKEVSMAISEFESKSQLLSKANEVVKRQEGEIYALQRALEEKEEELEISKATKKLEQEKLRETEANLKKQTEEWLIAQDEVNKLKEETVKRLGEANETMEDFMKVKKLLTDVRFELISSREALVFSREQMEEKELLLEKQLEELEEQRKSVLSYMQSLRDAHTEVESERVKLRVVEAKNFALEREISVQKELLEDLREELQKEKPLLELAMHDISVIQDELYKKANAFQVSQNLLQEKESSLVEAKLEIQHLKSEQASLELLLQEKDEELAEARNKLGEVNQEVTELKALMISREDQLMEATEMLKEKDVHLHRIEGELGSSKLKVTEAEMVVERIAELTNRLLMSTTNGQNQNAMRINNEISIDSMQQPLEKPHDDYGMENKRLVMELSFTRENLRMKEMEVLAVQRALTFKDEEINVVMGRLEAKEQELKKLKEETINDSEDLKVLYALAQERVGEKTMGDLAIEMLQLEAANLEVEAATSALQKLAKMSTELLTQADMSIEADTTHTVMPERGYSEGSNECLGEVKTEVVRLWSLTEKLLENAGIVAGTSTCMEGVIL
2 |  | binds | soluble starch synthase 4 (SS4), amino acids 43 to 1040, yeast two-hybrid bait (domain or fragment, UniProt Q0WVX5 43-1040) CKMRQQRGFDSSKRQEVKKGSPKPILSINSGLQSNNDEESDLENGSADSVPSLKSDAEKGSSIHGSIDMNHADENLEKKDDIQTTEVTRRKSKTAKKKGESIHATIDIGHDDGKNLDNITVPEVAKALSLNKSEGEQISDGQFGELMTMIRSAEKNILRLDEARATALDDLNKILSDKEALQGEINVLEMKLSETDERIKTAAQEKAHVELLEEQLEKLRHEMISPIESDGYVLALSKELETLKLENLSLRNDIEMLKSELDSVKDTGERVVVLEKECSGLESSVKDLESKLSVSQEDVSQLSTLKIECTDLWAKVETLQLLLDRATKQAEQAVIVLQQNQDLRNKVDKIEESLKEANVYKESSEKIQQYNELMQHKVTLLEERLEKSDAEIFSYVQLYQESIKEFQETLESLKEESKKKSRDEPVDDMPWDYWSRLLLTVDGWLLEKKIASNDADLLRDMVWKKDRRIHDTYIDVKDKNERDAISAFLKLVSSPTSSGLYVVHIAAEMAPVAKVGGLGDVVAGLGKALQRKGHLVEIILPKYDCMQYDRVRDLRALDTVVESYFDGKLYKNKIWIGTVEGLPVHFIEPQHPSKFFWRGQFYGEQDDFRRFSYFSRAALELLLQSGKKPDIIHCHDWQTAFVAPLYWDLYAPKGLDSARICFTCHNFEYQGTASASELGSCGLDVNQLNRPDRMQDHSSGDRVNPVKGAIIFSNIVTTVSPTYAQEVRTAEGGKGLHSTLNFHSKKFIGILNGIDTDSWNPATDPFLKAQFNAKDLQGKEENKHALRKQLGLSSAESRRPLVGCITRLVPQKGVHLIRHAIYRTLELGGQFVLLGSSPVPHIQREFEGIEQQFKSHDHVRLLLKYDEALSHTIYAASDLFIIPSIFEPCGLTQMIAMRYGSIPIARKTGGLNDSVFDIDDDTIPTQFQNGFTFQTADEQGFNYALERAFNHYKKDEEKWMRLVEKVMSIDFSWGSSATQYEELYTRSVSRARAVPNRT
